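Viability assay of Plasmodium falciparum sporozoites; the read-out is not stated. The concentration is filed as 10 mM, unlikely as a test dose, so the dose is not known. The record gives no direction; compounds that gave an IC50 in retests scored well above the rest, so higher reads as lower viability. Strong results were mostly tested again. Of about 34,000 compounds tested this way, about 280 (0.84%) reached 50% or more in at least one test.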

Each number is a percent effect as filed.
The record does not define 0% and 100%; most values in the screen are far below 50% and negative numbers occur (in some assays of this library far below -100).
The compounds are a random part of those screened.
Two or more numbers in one place are separate tests of the same structure; such repeats can differ widely.

* O=C(CSCC1CC1)N1CCCC(c2nccn2Cc2ccncc2)C1 (stereo not drawn) | 6.943%
* Cc1ccc(N2CCCN(C(=O)c3c(C)oc(C)c3C)CC2)nn1 | -16.42%
* CCOC(CC)C(=O)NCCC(=O)N1CCN(c2ncccn2)CC1 (stereo not drawn) | -12.74%
* CCOc1ccc(CC(CNC(=O)c2ccoc2C)C(N)=O)cc1 (stereo not drawn) | 2.453%
* O=C(NCC1CC1)c1cc2c(s1)CCN2C(=O)c1ccc(F)cc1 | -1.686%
* CN(C)C(=O)C1CCN(Cc2csc(C(C)(C)C)n2)CC1 | 0.03286%
* CC(C)NC(=O)N1CCCC2(CC(C(=O)Nc3ccccc3)=NO2)C1 (stereo not drawn) | 8.684%
* O=C(O)C(F)(F)F.[H][C@@]12OCCN(Cc3ccco3)[C@@]1([H])CC[C@@H]2OCC1CC1 | 4.024%
* CCN1CCN(Cc2csc(C(C)C)n2)CC1 | 4.905%
* O=C(O)C(F)(F)F.O=C(O)C(F)(F)F.O=C(O)C(F)(F)F.[H][C@]12CCN(Cc3ccoc3)C[C@@]1([H])OCCN(Cc1cccnc1)C2 | 2.357%
* NC(=O)Nc1cc(Br)cnc1OCC(F)(F)F | 5.451%
* CCc1nnc2n1CCN(CCS(=O)(=O)c1ccccc1)C2 | -2.126%
* C1CC(NCc2nc(C3CC3)no2)CN(Cc2noc(C3CC3)n2)C1 (stereo not drawn) | 1.12%
* CCc1nc(C2CCCN2CC(=O)NCCc2ccsc2)no1 (stereo not drawn) | 10.72%
* CC(C)(C)n1cc(C(=O)N2CCN(Cc3ccco3)CC2)cn1 | -652.5%
* Cc1cc(C(=O)NCc2ccc(N3CCCC(C(N)=O)C3)cc2)[nH]n1 (stereo not drawn) | -17.4%
* CCOCC1CN(c2ccc(C)nn2)Cc2cnn(CC)c21.O=C(O)C(F)(F)F.O=C(O)C(F)(F)F (stereo not drawn) | 3.293%
* O=C(C1=CCCC1)N1CCC[C@]2(C[C@@H](Oc3ncccc3F)CO2)C1.O=C(O)C(F)(F)F | 2.526%
* CN(C)Cc1cnc(C2CCN(C(=O)c3ccccc3F)C2)[nH]1.Cl (stereo not drawn) | -2.027%
* NC(=O)c1ccc2c(c1)nc1n2CCN(Cc2ccco2)C1 | -10.94%
* COCCN(C)C[C@@H]1CN(Cc2ccnc3ccccc23)C[C@@H]1CO | 8.415%
* [H][C@@]12CC[C@H](Oc3ccccc3F)[C@]1([H])CN(C(=O)c1cnco1)C2 | 2.962%
* COC(=O)c1ccc(N2CCN(C(=O)c3cc(C)no3)C(C)C2)cc1 (stereo not drawn) | 0.1601%
* COCC(=O)NC(C)Cc1cccc(Br)c1 (stereo not drawn) | 12.37%
* Cc1noc(C(C)C)c1C(=O)NCc1cccnc1 | 6.441%
* COc1cc(C(=O)NCC2(N(C)C)CCN(C)CC2)c2ccccc2n1 | -28.37%
* CCc1ccc(C(O)CN2CCN(c3cccc(OC)c3)CC2)cc1 (stereo not drawn) | 5.722%
* CC(C)(CC(=O)N(CC(N)=O)C1CCCC1)c1ccccc1 | -21.71%
* Nc1nc2c(c(N3CCCC(c4nnc5ccccn45)C3)n1)CCNC2 (stereo not drawn) | 0.9858%
* CC(C)CN(Cc1ccc(O)c(C(=O)O)c1)Cc1ccccn1 | -17.4%
* CS(=O)(=O)N1CCc2ccc(C(=O)N3CCn4ncnc4C3)cc21 | 3.424%
* O=C(O)c1ccc(S(=O)(=O)Nc2ccc(Cl)c(F)c2)c(F)c1 | 7.68%
* Cc1ccc(C)c(CN2CCCn3nc(CNS(C)(=O)=O)cc3C2)c1 | -10.47%
* CS(=O)(=O)NC[C@]1(O)CCN(C(=O)Cc2cccs2)C[C@H]1O | 11.2%
* Cc1ccccc1CN1CCCC1c1cncc(Nc2nncs2)n1 (stereo not drawn) | -3.069%
* CC(C)c1cc(NC(=O)CN2CCC(N3CCNC3=O)CC2)on1 | -8.356%
* C[C@@H](CO)Nc1cc(-c2cn[nH]c2)ncn1 | 16.17%
* Cc1cccc(NC(=O)c2nn(C3CCS(=O)(=O)C3)c3c2CCCC3)n1 (stereo not drawn) | 27.72% & 25.15%
* Cc1cccc(C(=O)N2CCC3(CC2)CC(c2cnn(C)c2)CO3)c1 (stereo not drawn) | -2.32%
* CN(C(=O)Cc1ccccc1Cl)C1CCN(c2ccccn2)CC1 | 0.1314%
* C=Cn1ncc(CN2CCC(c3ncc(Cl)cc3S(C)(=O)=O)CC2)c1C | 13.6%
* CCn1ccnc1CN1CCN(C(C)C(=O)NC2CCCCC2)CC1 (stereo not drawn) | -6.43%
* O=C(Cc1ccon1)NC1CCCN(c2ccccc2F)C1=O (stereo not drawn) | -3.044%
* Cc1nc(N2CCCC2)nc2c1CCN(C(=O)c1ccoc1C)CC2 | -3.376%

Once more, the final 5:

| structure | Percent Effect |
|---|---|
| `CN(C(=O)Cc1ccccc1Cl)C1CCN(c2ccccn2)CC1` | 0.1314 |
| `C=Cn1ncc(CN2CCC(c3ncc(Cl)cc3S(C)(=O)=O)CC2)c1C` | 13.6 |
| `CCn1ccnc1CN1CCN(C(C)C(=O)NC2CCCCC2)CC1` (stereo not drawn) | -6.43 |
| `O=C(Cc1ccon1)NC1CCCN(c2ccccc2F)C1=O` (stereo not drawn) | -3.044 |
| `Cc1nc(N2CCCC2)nc2c1CCN(C(=O)c1ccoc1C)CC2` | -3.376 |

From ChEMBL document CHEMBL3988442, “University of Dundee, Small-Polar-MMV Screening Library” (2021).